# Laboratory results as given in the supplement of paper PMC8728848.
# The other results are listed elsewhere or left out.
# Experiments:
# Assay in all cases: glycan array binding signal (z-score within array); higher = stronger binding
# Settings in all cases: glycan notation: IUPAC condensed, linker removed
# [1] = test system: Gal(b1-4)GlcNAc(b1-3)Gal(b1-4)Glc
# Method in brief: (§1)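 Arrays were curated from the Consortium for Functional Glycomics database, 3228 in total, and kept only where the protein sequence was available. Binding is expressed as a within-array Z-score. This score was averaged across arrays of the same protein sequence at different concentrations or buffers and across linkers, and negative values can be read as non-binding.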
# [2] = test system: Gal(b1-4)GlcNAc(b1-3)Gal(b1-4)[Fuc(a1-3)]GlcNAc(b1-3)Gal(b1-4)[Fuc(a1-3)]GlcNAc
# Method in brief: as §1
# [3] = test system: Gal(b1-4)GlcNAc(b1-3)GalNAc
# Method in brief: as §1
# [4] = test system: Gal(b1-4)GlcNAc(b1-3)[Fuc(a1-3)GlcNAc(b1-6)]Gal(b1-4)Glc
# Method in brief: as §1
# [5] = test system: Gal(b1-4)GlcNAc(b1-3)[Gal(b1-4)GlcNAc(b1-6)]Gal(b1-4)GlcNAc
# Method in brief: as §1
# [6] = test system: Gal(b1-4)GlcNAc(b1-3)[GlcNAc(b1-6)]Gal(b1-4)GlcNAc
# Method in brief: as §1
# [7] = test system: Gal(b1-4)GlcNAc(b1-6)Gal(b1-4)GlcNAc
# Method in brief: as §1
# [8] = test system: Gal(b1-4)GlcNAc(b1-6)GalNAc
# Method in brief: as §1
# [9] = test system: Gal(b1-4)GlcNAc(b1-6)[Gal(b1-3)]GalNAc
# Method in brief: as §1
# [10] = test system: Gal(b1-4)GlcNAc(b1-6)[Gal(b1-4)GlcNAc(b1-3)]GalNAc
# Method in brief: as §1
# Gal(b1-4)GlcNAc6P = test system: Gal(b1-4)GlcNAc6P
# Method in brief: as §1
# Gal(b1-4)GlcNAc = test system: Gal(b1-4)GlcNAc
# Method in brief: as §1
# Gal(b1-4)Glc = test system: Gal(b1-4)Glc
# Method in brief: as §1
# Gal(b1-6)Gal = test system: Gal(b1-6)Gal
# Method in brief: as §1
# Gal3S(b1-3)GalNAc = test system: Gal3S(b1-3)GalNAc
# Method in brief: as §1
# Gal3S(b1-3)GlcNAc = test system: Gal3S(b1-3)GlcNAc
# Method in brief: as §1
# [11] = test system: Gal3S(b1-3)[Fuc(a1-4)]GlcNAc
# Method in brief: as §1
# Gal3S(b1-4)Glc6S = test system: Gal3S(b1-4)Glc6S
# Method in brief: as §1
# Gal3S(b1-4)GlcNAc = test system: Gal3S(b1-4)GlcNAc
# Method in brief: as §1
# Gal3S(b1-4)Glc = test system: Gal3S(b1-4)Glc
# Method in brief: as §1
# [12] = test system: Gal3S(b1-4)[Fuc(a1-3)]Glc6S
# Method in brief: as §1
# [13] = test system: Gal3S(b1-4)[Fuc(a1-3)]GlcNAc6S
# Method in brief: as §1
# [14] = test system: Gal3S(b1-4)[Fuc(a1-3)]GlcNAc
# Method in brief: as §1
# Gal3S4S(b1-4)GlcNAc = test system: Gal3S4S(b1-4)GlcNAc
# Method in brief: as §1
# Gal3S6S(b1-4)GlcNAc6S = test system: Gal3S6S(b1-4)GlcNAc6S
# Method in brief: as §1
# Gal3S6S(b1-4)GlcNAc = test system: Gal3S6S(b1-4)GlcNAc
# Method in brief: as §1
# Gal4S(b1-4)GlcNAc = test system: Gal4S(b1-4)GlcNAc
# Method in brief: as §1
# Gal4S6S(b1-4)GlcNAc = test system: Gal4S6S(b1-4)GlcNAc
# Method in brief: as §1
# Gal6P(b1-4)GlcNAc = test system: Gal6P(b1-4)GlcNAc
# Method in brief: as §1
# Gal6S(b1-3)GlcNAc6S = test system: Gal6S(b1-3)GlcNAc6S
# Method in brief: as §1
# Gal6S(b1-3)GlcNAc = test system: Gal6S(b1-3)GlcNAc
# Method in brief: as §1
# Gal6S(b1-4)Glc6S = test system: Gal6S(b1-4)Glc6S
# Method in brief: as §1
substance,measurement,setting,value
MpAFP RI GFP (Marinomonas primoryensis),glycan array binding signal (z-score),[1],-0.581
same,glycan array binding signal (z-score),[2],-0.56
same,glycan array binding signal (z-score),[3],-0.195
same,glycan array binding signal (z-score),[4],0.271
same,glycan array binding signal (z-score),[5],0.106
same,glycan array binding signal (z-score),[6],0.349
same,glycan array binding signal (z-score),[7],-0.444
same,glycan array binding signal (z-score),[8],-0.359
same,glycan array binding signal (z-score),[9],0.151
same,glycan array binding signal (z-score),[10],-0.588
same,glycan array binding signal (z-score),Gal(b1-4)GlcNAc6P,-0.563
same,glycan array binding signal (z-score),Gal(b1-4)GlcNAc,0.167
same,glycan array binding signal (z-score),Gal(b1-4)Glc,-0.463
same,glycan array binding signal (z-score),Gal(b1-6)Gal,-0.336
same,glycan array binding signal (z-score),Gal3S(b1-3)GalNAc,-0.706
same,glycan array binding signal (z-score),Gal3S(b1-3)GlcNAc,-0.429
same,glycan array binding signal (z-score),[11],0.172
same,glycan array binding signal (z-score),Gal3S(b1-4)Glc6S,-0.434
same,glycan array binding signal (z-score),Gal3S(b1-4)GlcNAc,-0.221
same,glycan array binding signal (z-score),Gal3S(b1-4)Glc,0.469
same,glycan array binding signal (z-score),[12],0.752
same,glycan array binding signal (z-score),[13],0.381
same,glycan array binding signal (z-score),[14],0.454
same,glycan array binding signal (z-score),Gal3S4S(b1-4)GlcNAc,-0.614
same,glycan array binding signal (z-score),Gal3S6S(b1-4)GlcNAc6S,-0.392
same,glycan array binding signal (z-score),Gal3S6S(b1-4)GlcNAc,-0.572
same,glycan array binding signal (z-score),Gal4S(b1-4)GlcNAc,-1.03
same,glycan array binding signal (z-score),Gal4S6S(b1-4)GlcNAc,-0.626
same,glycan array binding signal (z-score),Gal6P(b1-4)GlcNAc,-0.372
same,glycan array binding signal (z-score),Gal6S(b1-3)GlcNAc6S,-0.109
same,glycan array binding signal (z-score),Gal6S(b1-3)GlcNAc,-0.664
same,glycan array binding signal (z-score),Gal6S(b1-4)Glc6S,-0.489

# Nothing new here: entries from further up.
substance,measurement,setting,value
MpAFP RI GFP (Marinomonas primoryensis),glycan array binding signal (z-score),Gal3S6S(b1-4)GlcNAc6S,-0.392
same,glycan array binding signal (z-score),Gal3S6S(b1-4)GlcNAc,-0.572
